This passage reports median seed-adjusted z-score results from PubChem BioAssay AID1347426 (Functional Genomics Laboratory (NCATS/FGL), 2020).

Screen size: about 31,000 sequences; about 1,400 (4.5%) were called active.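 The calls were made as follows: active = median seed-adjusted z-score above 1 or below -1; inactive = the rest.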 Some of the results follow.

The assay can be described thus: Novel Modifiers of Survival Motor Neuron (SMN) Protein: Gene Identification via Genome-wide siRNA Screen.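 Also: luminescence tracks full-length SMN protein made from the SMN2 reporter.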 The settings on record: HEK293T SMN2-luciferase reporter, siRNA knockdown, 72 h; actives lie on both sides. In outline: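 HEK293T cells stably carrying an SMN2 promoter/splicing cassette–luciferase reporter were reverse-transfected with 1 pmol siRNA per well (druggable-genome library, 3 siRNAs per gene) and grown 72 h at 37 °C. Luminescence, normalized to negative-control siRNA and log10-transformed, was scored as MAD.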
Background: In a reporter assay the amount or activity of a reporter protein is the signal.
With GGAAAUCAGCAUACUGGAATT against SLC24A6, the median seed-adjusted z-score is inactive: -0.792.
On to CAGCAACAAGAGCACCAGATT against SLC22A6, for which the median seed-adjusted z-score is inactive: 0.135.
To CGAUGUGCAUUGAAGCGAATT against BMP2K belongs inactive: -0.51; to GGAUCUCAAGUAUACCAUUTT against SND1, inactive: -0.0434.
As for GAACAACACCAACAUAAGATT against SMOC1, the median seed-adjusted z-score was inactive: 0.0453.
The value for GGACAACACGUACAUCGUATT against SULF2 was inactive: -0.109; that for CACGUACUGUGAAUACAGATT against KIF21A was inactive: 0.53.
Take CCUUGACCCAGUCUAUUUATT against SCARA3: the median seed-adjusted z-score was inactive: -0.05.
As to GAAGUAAGACAGUAGAUGATT against SENP7, the median seed-adjusted z-score was inactive: 0.547.
The value for GAGUAGUAUUUCUUUUCUATT against NEU1 was inactive: -0.425; that for CCAUUGUGGUUAUUAUGCUTT against TLR10 was inactive: -0.363.
Consider GCAUGAUGAUUAUUUCCAATT against FLJ12529, for which the median seed-adjusted z-score is inactive: 0.852.
To CCUUAGGAAUGAAAUCGCUTT against SIPA1L1 belongs inactive: 0.0925.
To CAUGAGAUACGAUACACUATT against TRMT6 belongs inactive: 0.069; to CAUUGUCGUUGGUGCAGUATT against ADCY10, inactive: -0.573.
To CAAACUAGAGAGAAAGUCUTT against ZNF556 belongs inactive: 0; to CAACCACCCUCACAUCAUUTT against NUAK2, inactive: -0.0601.
On to CCAAGCGAGAAGUACCUAATT against APC, for which the median seed-adjusted z-score is inactive: 0.154.
To GCUUAUGACUGCACCAACATT against FPGS belongs inactive: -0.853.
To GAAAUGUCAUAACUGCAAATT against CRYM belongs inactive: -0.373; to CAAAGGAGCUAAACACCUUTT against UGT2B7, inactive: 0.313.
The value for CGAUGACUCCUCCGACUUUTT against PTPN3 was inactive: -0.535; that for GUAGAGAUGUCAUUACCUATT against GTF3C2 was inactive: 0.32.
Turning to CCGUCAAGGUCGUCAUACATT against NTSR1, the median seed-adjusted z-score is active: -1.1.
With CCUCUGAAGCUACAACAGATT against IRF1, the median seed-adjusted z-score was inactive: 0.831.
To GGCUCGUCGUUGUAUCACATT against BMPR1A belongs inactive: 0.797; to GAAGCUACGUUGACUAUUUTT against HRC, active: 1.06; to GGAAUCUGCUGAUCUUGUUTT against ERAL1, inactive: -0.46.
To AAGUGGACUGCAGCAUUUATT against SPINK7 belongs inactive: -0.409; to GCAGUGUCCCAUCGUCUUATT against NSUN2, inactive: -0.707.
